Assay results taken from PubChem BioAssay AID540276 (National Center for Advancing Translational Sciences (NCATS), 2011).
The campaign covered roughly 300,000 compounds. About 5,400 (1.8%) were called active. The inconclusive results got no clear call from the source; some entries with a clear call stand among them for comparison. Calls follow the shape of the full dose curve; tested in HEK293 cells. A potency beside an inconclusive call is a rough fit, not a confirmed value.

Experiment: qHTS for inhibitors of binding or entry into cells for Marburg Virus
Details: Marburg virus pseudotyped entry inhibition, cell reporter; series mostly up to 37.8 µM
Potency is read from the fitted curve at half-maximal effect.

SMILES | Potency
COc1ccccc1NC(=S)N(CCN1CCOCC1)Cc1ccccc1F | inconclusive: 35.5 µM [inhibitor, single point]
CCCCSc1nc(C)cc(C)c1S(=O)(=O)c1ccccc1C | inconclusive: 35.5 µM [inhibitor, single point]
CCOc1ccccc1C(=O)Nc1cc(OC)ccc1OC | inconclusive: 0.112 µM [inhibitor, full curve, poor fit]
COc1ccc(C=CC(=O)c2c(OC)cc(OC)c(OC)c2O)cc1 | inconclusive: 14.1 µM [inhibitor, single point]
Cc1ccc(C)c2[nH]c(=O)c(CN(Cc3ccco3)C(=O)Nc3ccccc3)cc12 | inconclusive: 11.2 µM [inhibitor, partial curve, poor fit]
OC(CSc1c(Cl)cccc1Cl)CN1CCN(c2ccc(F)cc2)CC1 (configuration not stated) | inconclusive: 20.6 µM [inhibitor, single point]
CC(=O)c1ccc(S(=O)(=O)N2CCN(C(=O)c3ccc(COc4ccccc4)o3)CC2)cc1 | inconclusive: 35.5 µM [inhibitor, single point]
COC(=O)CN1C(c2cccc(Cl)c2)=Nc2ccc(Cl)cc2C1c1ccccc1 (configuration not stated) | inactive
COc1cc2c(cc1NC(=O)C(C)Sc1cccc[n+]1[O-])oc1ccccc12 (configuration not stated) | inconclusive: 3.98 µM [activator, full curve]
CC(C)(C)c1ccc(C(=O)N2CCC(c3noc(-c4ccc(S(=O)(=O)N5CCCC5)cc4)n3)CC2)cc1 | inactive
CCN(CC)S(=O)(=O)c1ccc(NC(=O)c2ccc3c(=O)n4c(nc3c2)CCCCC4)cc1 | inconclusive: 22.4 µM [inhibitor, partial curve, poor fit]
CCOC(=O)N1CCN(S(=O)(=O)c2ccc(C(=O)NNc3nc4c(C)cccc4s3)cc2)CC1 | inconclusive: 29.1 µM [inhibitor, single point]
COc1cccc(CC(=O)Nc2nc3ccccc3[nH]2)c1 | inactive
O=C(CN(Cc1cccs1)S(=O)(=O)c1ccc(S(=O)(=O)NC2CCCCC2)cc1)Nc1ccccc1 | inconclusive: 14.1 µM [inhibitor, single point]
COc1cc(C(=O)c2cocc2C(=O)c2ccc3c(c2)OCO3)cc(OC)c1OC | inconclusive: 1.12 µM [inhibitor, partial curve, poor fit]
CC(OC(=O)CCOc1ccccc1)C(=O)NC1CC1 (configuration not stated) | inconclusive: 6.31 µM [activator, single point]
Nc1nnc(CCOc2ccccc2Cl)s1 | inconclusive: 6.51 µM [activator, single point]
CCOc1ccc2nc(NS(=O)(=O)c3ccc4c(c3)n(C)c(=O)n4C)sc2c1 | inactive
CCCC(=O)NC(c1ccco1)c1cc([N+](=O)[O-])c2cccnc2c1O (configuration not stated) | inconclusive: 2.51 µM [inhibitor, single point]
COc1ccc(/C=C/C(=O)N(CC(C)C)C2CCS(=O)(=O)C2)cc1 (configuration not stated) | inactive
O=[N+]([O-])c1ccc(C(=S)N2CCCC2)cc1 | inactive
CC1Cc2ccccc2N1C(=O)CSc1nncn1C (configuration not stated) | inactive
Oc1cccc(NC(=S)Nc2ccc(SC(F)F)cc2)c1 | inconclusive: 35.5 µM [inhibitor, single point]

SMILES | Potency
COc1ccc(NC(=O)CSc2c3c(nc4ccccc24)CCC3)cc1Cl | inactive
Cc1cccc(N2CC(O)(c3cccs3)[N+]3=C2CCCC3)c1C (configuration not stated) | inconclusive: 35.5 µM [inhibitor, single point]
N#C/C(=C/c1ccc(-c2ccccc2)o1)c1nc(-c2cccs2)cs1 | inconclusive: 0.282 µM [inhibitor, partial curve, poor fit]
Cc1nn(S(=O)(=O)c2ccc(F)cc2)c(C)c1S(=O)(=O)N1CCCCC1 | inactive
COc1ccc2cc(S(=O)(=O)NC3CC(C)(C)NC(C)(C)C3)ccc2c1 | inconclusive: 35.5 µM [inhibitor, single point]
CC(C)NC(=O)C1CCCN(S(=O)(=O)c2ccc(-n3cnnn3)cc2)C1 (configuration not stated) | inconclusive: 29.1 µM [inhibitor, single point]
CCc1noc(C)c1C(=O)Nc1nc(-c2ccc(OC)c(OC)c2)cs1 | inconclusive: 11.2 µM [inhibitor, partial curve, poor fit]
CC(CO)Nc1nc(SCc2ccccc2)nc2sc3c(c12)CCC3 (configuration not stated) | inactive
Cc1cc(C)cc(-n2c3nc4ccccc4nc3c3c(=O)n(Cc4ccco4)cnc32)c1 | inconclusive: 31.6 µM [activator, single point]
COc1ccc(OCc2cc(C(=O)N(C)Cc3nccn3C)no2)c2ccccc12 | inactive
Cc1ccc(OCC(=O)N(C)CC(=O)Nc2ccccc2Cl)c([N+](=O)[O-])n1 | inconclusive: 1.26 µM [activator, single point]
C/C(CCc1ccc2c(c1)OCO2)=N\NC(=O)c1ccccc1 | inconclusive: 8.91 µM [inhibitor, partial curve, poor fit]
Cc1cc(C(=O)OCC(=O)NC2CC2)ccc1[N+](=O)[O-] | inconclusive: 0.562 µM [inhibitor, full curve]
CC(=O)Nc1ccc(NC(=O)C(=O)c2cn(CC(=O)N3CCCC3)c3ccccc23)cc1 | inactive
Nc1cc(N)nc(SCCN2CCCCC2)n1 | inactive
COc1ccccc1NC(=O)C1CCN(C(=O)c2ccc(C(C)(C)C)cc2)CC1 | inconclusive: 35.5 µM [inhibitor, single point]
CCOC(=O)CC(=O)CSc1nc2c(cc1C#N)CCCCC2 | inconclusive: 6.31 µM [inhibitor, partial curve, poor fit]
Cc1ccccc1OCCOC(=O)c1cc(S(=O)(=O)N2CCCCC2)ccc1N1CCOCC1 | inconclusive: 4.47 µM [inhibitor, partial curve, poor fit]
O=C(CCCN1C(=O)c2ccccc2C1=O)N1CCOCC1 | inconclusive: 2.82 µM [inhibitor, full curve]
Cc1nonc1C1CCCN1C(=O)c1cc(COc2ccc(F)cc2F)on1 (configuration not stated) | inactive
COc1ccc(C2=NCC(CSc3nnc(-c4ccc5c(c4)OCO5)o3)S2)cc1 (configuration not stated) | inconclusive: 29.1 µM [inhibitor, single point]
O=c1c2cc3c(nc2[nH]c(=S)n1-c1ccccc1)CCCC3 | inconclusive: 15.8 µM [activator, single point]
CCOC(=O)c1c(NC(=O)CSC(=S)N2CCOCC2)sc(C)c1C | inconclusive: 0.398 µM [inhibitor, full curve, poor fit]

In another format: 6 of the compounds above.
SMILES	Potency
Cc1cccc(N2CC(O)(c3cccs3)[N+]3=C2CCCC3)c1C (configuration not stated)	inconclusive: 35.5 µM [inhibitor, single point]
N#C/C(=C/c1ccc(-c2ccccc2)o1)c1nc(-c2cccs2)cs1	inconclusive: 0.282 µM [inhibitor, partial curve, poor fit]
Cc1cc(C)cc(-n2c3nc4ccccc4nc3c3c(=O)n(Cc4ccco4)cnc32)c1	inconclusive: 31.6 µM [activator, single point]
Nc1cc(N)nc(SCCN2CCCCC2)n1	inactive
Cc1ccccc1OCCOC(=O)c1cc(S(=O)(=O)N2CCCCC2)ccc1N1CCOCC1	inconclusive: 4.47 µM [inhibitor, partial curve, poor fit]
COc1ccc(C2=NCC(CSc3nnc(-c4ccc5c(c4)OCO5)o3)S2)cc1 (configuration not stated)	inconclusive: 29.1 µM [inhibitor, single point]

(list continues)

SMILES | Potency
Cc1ccc(Nc2nc3ccc(C)cc3nc2-n2nc(C)cc2C)c(C)c1 | inactive
Cc1sc2ncnc(NCC(c3ccccc3)N(C)C)c2c1C (configuration not stated) | inconclusive: 14.1 µM [inhibitor, partial curve, poor fit]
CN(Cc1cnccn1)Cc1nc(Cc2ccccc2Cl)no1 | inactive
CCN(CC)C(=O)Cn1nc(-c2ccccc2O)nc1SCC(=O)Nc1ccc(OC)cc1 | inconclusive: 2.59 µM [inhibitor, partial curve, poor fit]
Cc1ccc(NC(=O)NCc2ccccn2)cc1 | inconclusive: 11.2 µM [activator, single point]
COc1ccc(C(C(=O)NC2CCCC2)N(C(=O)c2snc(C(N)=O)c2N)c2cc(C)ccc2OC)cc1OC (configuration not stated) | inconclusive: 20 µM [inhibitor, partial curve, poor fit]
O=C(NNC(=O)c1ccc([N+](=O)[O-])cc1)c1ccncc1 | inconclusive: 3.16 µM [activator, full curve, poor fit]
Cc1ccc(S(=O)(=O)N2CCN(C(C)C)CC2)cc1 | inconclusive: 35.5 µM [activator, single point]
O=C(Nc1nc2ccc(Cl)cc2s1)c1ccco1 | inconclusive: 2.24 µM [inhibitor, partial curve, poor fit]
O=C(Oc1ccccc1)c1cccc(COC(=O)c2cnccn2)c1 | inactive
O=C(CSc1nnc(-c2cccs2)n1Cc1ccco1)Nc1ccc2c(c1)OCO2 | inactive
CC(C)N(CCNC(=O)c1ccc(OCC2CCCO2)cc1)C(C)C (configuration not stated) | inconclusive: 15.8 µM [inhibitor, single point]
COc1ccc(OCC(=O)NNC(=O)C2CCCO2)cc1 (configuration not stated) | inactive
CCOc1ccccc1C(=O)Nc1ccc2c(c1)C(=O)NC2=O | inconclusive: 35.5 µM [inhibitor, single point]
CCC1(C)Cc2c(sc3[nH]c(=S)n(Cc4ccccc4)c(=O)c23)CO1 (configuration not stated) | inconclusive: 12.6 µM [inhibitor, partial curve]
OC1(c2ccccc2)CC(c2ccccc2)c2ccccc2O1 (configuration not stated) | inconclusive: 22.4 µM [inhibitor, single point]
NC(=O)C1(NC2CCCCC2)CCN(Cc2ccccc2)CC1 | inconclusive: 11.2 µM [inhibitor, single point]
CC(C)(C)c1cc[n+](-c2[nH]c(=O)sc2/C=N/NC([S-])=Nc2ccccc2)cc1 | inconclusive: 35.5 µM [activator, single point]
NC(=O)C1CCN(C(=O)CCc2nc3sc4c(c3c(=O)[nH]2)CCCC4)CC1 | inconclusive: 2.82 µM [inhibitor, partial curve, poor fit]
CCOc1ccc(-c2cc(C)[n+](CCc3ccc(OC)c(OC)c3)c(-c3ccc(OCC)cc3)c2)cc1 | inconclusive: 20 µM [inhibitor, partial curve, poor fit]
CCN(CC)S(=O)(=O)c1ccc(N2CCOCC2)c(NC(=O)c2ccc3ccccc3c2)c1 | inconclusive: 20 µM [inhibitor, single point]
